This passage reports binding results from paper PMC5327418.

Amino acid sequences for entries named in this document (tags omitted).
UniProt P19659: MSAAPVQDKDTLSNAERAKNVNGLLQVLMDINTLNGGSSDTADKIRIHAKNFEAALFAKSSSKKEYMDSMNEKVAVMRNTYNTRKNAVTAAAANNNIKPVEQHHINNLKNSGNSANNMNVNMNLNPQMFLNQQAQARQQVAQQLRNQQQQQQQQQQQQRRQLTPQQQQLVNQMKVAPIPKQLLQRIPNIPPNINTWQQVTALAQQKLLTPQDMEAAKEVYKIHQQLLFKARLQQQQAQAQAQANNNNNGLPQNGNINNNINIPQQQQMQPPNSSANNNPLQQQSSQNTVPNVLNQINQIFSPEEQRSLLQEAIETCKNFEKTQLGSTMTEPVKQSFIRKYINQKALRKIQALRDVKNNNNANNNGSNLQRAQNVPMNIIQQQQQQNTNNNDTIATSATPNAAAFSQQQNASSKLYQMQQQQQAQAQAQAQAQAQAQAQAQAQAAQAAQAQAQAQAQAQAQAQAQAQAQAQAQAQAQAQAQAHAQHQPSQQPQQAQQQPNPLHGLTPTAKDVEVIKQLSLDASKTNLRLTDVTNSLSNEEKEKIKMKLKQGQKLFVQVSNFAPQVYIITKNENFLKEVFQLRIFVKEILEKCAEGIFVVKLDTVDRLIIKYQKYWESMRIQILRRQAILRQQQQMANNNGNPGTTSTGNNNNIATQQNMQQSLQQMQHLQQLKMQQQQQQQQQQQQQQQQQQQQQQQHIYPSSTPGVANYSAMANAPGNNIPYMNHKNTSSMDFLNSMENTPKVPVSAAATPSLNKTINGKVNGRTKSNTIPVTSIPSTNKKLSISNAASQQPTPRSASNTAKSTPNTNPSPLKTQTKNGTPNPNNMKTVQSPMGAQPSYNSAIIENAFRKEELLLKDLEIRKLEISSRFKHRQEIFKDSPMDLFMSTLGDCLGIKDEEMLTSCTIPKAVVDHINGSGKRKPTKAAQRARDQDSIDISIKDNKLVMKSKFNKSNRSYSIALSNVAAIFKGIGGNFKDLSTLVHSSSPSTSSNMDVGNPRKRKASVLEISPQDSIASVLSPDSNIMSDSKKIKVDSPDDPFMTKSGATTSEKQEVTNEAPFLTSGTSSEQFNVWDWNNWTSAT
UniProt P53114: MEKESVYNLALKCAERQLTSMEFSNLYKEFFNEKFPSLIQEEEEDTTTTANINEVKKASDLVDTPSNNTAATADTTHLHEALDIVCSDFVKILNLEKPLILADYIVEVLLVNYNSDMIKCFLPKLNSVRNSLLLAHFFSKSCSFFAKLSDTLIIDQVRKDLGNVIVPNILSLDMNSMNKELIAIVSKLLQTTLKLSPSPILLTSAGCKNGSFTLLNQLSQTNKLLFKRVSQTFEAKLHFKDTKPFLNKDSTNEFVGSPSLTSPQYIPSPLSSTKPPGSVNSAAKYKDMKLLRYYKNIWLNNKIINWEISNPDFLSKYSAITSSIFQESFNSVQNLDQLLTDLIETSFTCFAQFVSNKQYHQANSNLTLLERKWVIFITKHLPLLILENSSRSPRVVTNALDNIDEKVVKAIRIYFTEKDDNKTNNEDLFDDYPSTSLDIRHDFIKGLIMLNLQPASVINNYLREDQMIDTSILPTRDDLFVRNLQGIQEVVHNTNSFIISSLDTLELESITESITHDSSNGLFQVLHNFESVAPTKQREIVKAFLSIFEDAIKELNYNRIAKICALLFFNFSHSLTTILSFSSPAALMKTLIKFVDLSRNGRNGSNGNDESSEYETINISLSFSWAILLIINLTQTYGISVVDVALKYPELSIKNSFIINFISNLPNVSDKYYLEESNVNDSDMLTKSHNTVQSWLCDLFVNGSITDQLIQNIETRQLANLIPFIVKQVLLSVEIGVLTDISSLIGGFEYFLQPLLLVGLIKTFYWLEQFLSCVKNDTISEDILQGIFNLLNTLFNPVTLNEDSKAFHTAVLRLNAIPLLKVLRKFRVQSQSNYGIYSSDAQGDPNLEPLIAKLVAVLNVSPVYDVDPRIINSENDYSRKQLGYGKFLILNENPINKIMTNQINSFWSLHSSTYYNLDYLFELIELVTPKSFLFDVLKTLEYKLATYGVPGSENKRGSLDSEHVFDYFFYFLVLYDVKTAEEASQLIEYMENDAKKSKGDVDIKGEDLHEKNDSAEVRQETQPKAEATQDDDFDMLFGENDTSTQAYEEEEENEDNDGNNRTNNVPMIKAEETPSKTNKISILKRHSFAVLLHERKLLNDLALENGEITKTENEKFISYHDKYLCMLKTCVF
UniProt P32259: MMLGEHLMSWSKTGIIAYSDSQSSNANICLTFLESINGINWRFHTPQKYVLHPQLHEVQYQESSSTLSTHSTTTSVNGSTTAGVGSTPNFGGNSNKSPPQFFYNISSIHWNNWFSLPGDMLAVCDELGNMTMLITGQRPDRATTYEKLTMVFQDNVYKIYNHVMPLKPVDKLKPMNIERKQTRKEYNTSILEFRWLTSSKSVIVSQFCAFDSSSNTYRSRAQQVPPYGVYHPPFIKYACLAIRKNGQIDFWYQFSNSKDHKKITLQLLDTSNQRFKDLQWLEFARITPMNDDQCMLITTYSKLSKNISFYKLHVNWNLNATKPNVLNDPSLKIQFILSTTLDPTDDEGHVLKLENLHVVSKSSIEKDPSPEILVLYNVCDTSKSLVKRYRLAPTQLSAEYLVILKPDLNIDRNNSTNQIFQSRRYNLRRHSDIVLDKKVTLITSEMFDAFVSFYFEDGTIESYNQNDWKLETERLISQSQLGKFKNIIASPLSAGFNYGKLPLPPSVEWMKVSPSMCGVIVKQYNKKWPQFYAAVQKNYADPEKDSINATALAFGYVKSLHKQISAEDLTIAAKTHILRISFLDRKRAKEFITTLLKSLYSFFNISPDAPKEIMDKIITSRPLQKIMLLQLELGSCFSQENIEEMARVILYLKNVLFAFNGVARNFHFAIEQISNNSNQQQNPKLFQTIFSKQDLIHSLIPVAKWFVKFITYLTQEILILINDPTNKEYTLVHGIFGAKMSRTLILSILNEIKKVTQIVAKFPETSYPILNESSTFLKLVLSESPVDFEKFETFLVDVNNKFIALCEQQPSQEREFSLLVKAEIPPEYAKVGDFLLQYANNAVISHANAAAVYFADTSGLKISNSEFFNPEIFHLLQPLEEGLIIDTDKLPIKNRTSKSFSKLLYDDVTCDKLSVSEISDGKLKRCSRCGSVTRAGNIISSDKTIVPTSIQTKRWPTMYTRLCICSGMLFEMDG
UniProt P40356: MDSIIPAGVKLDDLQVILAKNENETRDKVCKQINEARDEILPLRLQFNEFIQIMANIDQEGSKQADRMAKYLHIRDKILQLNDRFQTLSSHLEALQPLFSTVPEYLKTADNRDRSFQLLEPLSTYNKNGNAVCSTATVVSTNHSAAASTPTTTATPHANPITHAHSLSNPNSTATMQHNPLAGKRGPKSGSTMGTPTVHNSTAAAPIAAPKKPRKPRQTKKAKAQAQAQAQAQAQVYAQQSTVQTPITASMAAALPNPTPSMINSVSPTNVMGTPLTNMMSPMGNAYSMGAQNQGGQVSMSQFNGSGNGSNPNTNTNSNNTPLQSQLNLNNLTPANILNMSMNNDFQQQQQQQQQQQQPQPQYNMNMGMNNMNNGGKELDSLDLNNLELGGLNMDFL
UniProt Q12124: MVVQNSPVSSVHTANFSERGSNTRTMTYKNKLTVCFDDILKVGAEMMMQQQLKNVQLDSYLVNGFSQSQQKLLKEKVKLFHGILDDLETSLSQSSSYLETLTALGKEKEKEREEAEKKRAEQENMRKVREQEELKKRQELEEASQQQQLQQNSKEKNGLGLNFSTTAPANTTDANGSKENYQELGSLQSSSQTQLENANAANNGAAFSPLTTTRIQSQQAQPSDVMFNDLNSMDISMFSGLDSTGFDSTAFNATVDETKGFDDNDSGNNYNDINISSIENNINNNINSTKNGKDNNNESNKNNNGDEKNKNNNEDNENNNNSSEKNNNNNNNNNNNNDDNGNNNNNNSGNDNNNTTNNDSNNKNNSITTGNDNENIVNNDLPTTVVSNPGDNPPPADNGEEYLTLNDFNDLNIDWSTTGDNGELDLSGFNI

No constants are given. Whether binding was seen depends on the method and setting. In cells and extracts the contact can be indirect. Here binding means that the protein was enriched with, or labelled near, the bait; the list need not be complete. For some assays here: Where a sequence is shown, tags or fusion partners need not be part of it.

Test [1] addresses Med17-HA (S. cerevisiae (endogenous in S288c)) (UniProt P32569). Nature of the test: affinity purification with mass spectrometry; purification-after-mixing (PAM): Med17-HA cells and differently labelled wild type cells mixed before cryogrinding and CoIP, same conditions as the MAP experiment, 2 h CoIP.
For test [2], the target named is T1, Med17-HA (S. cerevisiae (endogenous in S288c)), P32569.
T1 chain: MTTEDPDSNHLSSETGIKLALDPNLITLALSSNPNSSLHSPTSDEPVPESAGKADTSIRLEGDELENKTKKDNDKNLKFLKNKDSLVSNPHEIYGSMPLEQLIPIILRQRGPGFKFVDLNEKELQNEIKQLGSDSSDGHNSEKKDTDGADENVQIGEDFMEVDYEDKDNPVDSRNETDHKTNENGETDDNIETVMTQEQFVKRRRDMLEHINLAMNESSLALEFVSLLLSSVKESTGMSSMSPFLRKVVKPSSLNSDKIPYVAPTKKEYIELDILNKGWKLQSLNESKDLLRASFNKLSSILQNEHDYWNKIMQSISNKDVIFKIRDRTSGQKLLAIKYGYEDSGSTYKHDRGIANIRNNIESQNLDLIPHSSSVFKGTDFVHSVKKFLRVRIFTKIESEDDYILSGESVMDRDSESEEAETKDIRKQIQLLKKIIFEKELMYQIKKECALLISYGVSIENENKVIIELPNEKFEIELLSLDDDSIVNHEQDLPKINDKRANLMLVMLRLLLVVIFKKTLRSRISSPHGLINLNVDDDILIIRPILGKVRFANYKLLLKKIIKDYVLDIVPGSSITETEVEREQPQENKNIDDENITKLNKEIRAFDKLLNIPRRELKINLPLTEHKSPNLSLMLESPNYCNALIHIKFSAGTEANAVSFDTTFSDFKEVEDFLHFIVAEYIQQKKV
As to the kind of experiment: affinity purification with mass spectrometry; CoIP of Med17-HA on anti-HA magnetic beads from cryoground yeast lysate, 2 h at 4 °C; 20 mM HEPES pH 7.5, 300 mM KOAc, 10% glycerol, 0.01% NP-40, 6 mM MnSO4, 1 mM DTT, Cyanase nuclease; parallel control CoIP from 15N-labelled wild type cells, mixing after purification (MAP); GeLC-MS/MS, three biological replicates. As to conditions: remark: other sources report otherwise.

For the molecule Med15 (from UniProt P19659 1-1081), in test [1], the binding result is listed as “binds”.

On to Med5 (from UniProt P53114 1-1132), for which the binding result in test [1] was “binds”.

As for Med16 (from UniProt P32259 1-974), the binding result in test [1] is recorded as “binds”.

For the molecule Med3 (from UniProt P40356 1-397), in test [1], the binding entry is “binds”.

Take Med2 (from UniProt Q12124 1-431): the binding entry in test [1] is “binds”.

B1: Ssn3, P39073 1-555 (protein)
chain: MYNGKDRAQNSYQPMYQRPMQVQGQQQAQSFVGKKNTIGSVHGKAPMLMANNDVFTIGPYRARKDRMRVSVLEKYEVIGYIAAGTYGKVYKAKRQINSGTNSANGSSLNGTNAKIPQFDSTQPKSSSSMDMQANTNALRRNLLKDEGVTPGRIRTTREDVSPHYNSQKQTLIKKPLTVFYAIKKFKTEKDGVEQLHYTGISQSACREMALCRELHNKHLTTLVEIFLERKCVHMVYEYAEHDLLQIIHFHSHPEKRMIPPRMVRSIMWQLLDGVSYLHQNWVLHRDLKPANIMVTIDGCVKIGDLGLARKFHNMLQTLYTGDKVVVTIWYRAPELLLGARHYTPAVDLWSVGCIFAELIGLQPIFKGEEAKLDSKKTVPFQVNQLQRILEVLGTPDQKIWPYLEKYPEYDQITKFPKYRDNLATWYHSAGGRDKHALSLLYHLLNYDPIKRIDAFNALEHKYFTESDIPVSENVFEGLTYKYPARRIHTNDNDIMNLGSRTKNNTQASGITAGAAANALGGLGVNRRILAAAAAAAAAVSGNNASDEPSRKKNRR
As for B1, the binding result in test [2] is “binds”.

B2: Ssn8, P47821 1-323 (protein)
chain: MSGSFWTSTQRHHWQYTKASLAKERQKLWLLECQLFPQGLNIVMDSKQNGIEQSITKNIPITHRDLHYDKDYNLRIYCYFLIMKLGRRLNIRQYALATAHIYLSRFLIKASVREINLYMLVTTCVYLACKVEECPQYIRTLVSEARTLWPEFIPPDPTKVTEFEFYLLEELESYLIVHHPYQSLKQIVQVLKQPPFQITLSSDDLQNCWSLINDSYINDVHLLYPPHIIAVACLFITISIHGKPTKGSSLASAASEAIRDPKNSSSPVQIAFNRFMAESLVDLEEVMDTIQEQITLYDHWDKYHEQWIKFLLHTLYLRPASAI
Consider B2, for which the binding result in test [2] is reported as “binds”.

B3: Ssn2, P38931 1-1420 (protein)
chain: MSSDASTYRLEDVLSSFYRVEKIKKINYHQYISKAQNDQWSIQMEFMLRKQDPKTLVALLSRDLWCFSINDDPVPTPPAIEHKPVSPDKIGTFTADYSKPNLPPHYALFLKALRRKIYINLALGSHNKLIQFGNACISLSGVPNYLVQLEPHLFVNGDLTVSLCAKNMGLVPMKEENLEESFLSKHALYLAPSGIRMHLAPASKQGYLITPPKHTELLLTTLSVSHGINLQNKKNLKWVAVVPDLGHLNGHTPTIASYLTPLLEAKKLVWPLHLIFAQPVADIENSTSGDPSEFHCLQDALDAIDDFIQLKQTAAYRTPGSSGVLSSNIAGTNPLSSDGAYTEQFQHYKNNSISSQPASYHSVQETNKISPKDFSPNFTGIDKLMLSPSDQFAPAFLNTPNNNINENELFNDRKQTTVSNDLENSPLKTELEANGRSLEKVNNSVSKTGSVDTLHNKEGTLEQREQNENLPSDKSDSMVDKELFGEDEDEDLFGDSNKSNSTNESNKSISDEITEDMFEMSDEEENNNNKSINKNNKEMHTDLGKDIPFFPSSEKPNIRTMSGTTKRLNGKRKYLDIPIDEMTLPTSPLYMDPGAPLPVETPRDRRKSVFAPLNFNPIIENNVDNKYKSGGKFSFSPLQKEEALNFDISMADLSSSEEEEDEEENGSSDEDLKSLNVRDDMKPSDNISTNTNIHEPQYINYSSIPSLQDSIIKQENFNSVNDANITSNKEGFNSIWKIPQNDIPQTESPLKTVDSSIQPIESNIKMTLEDNNVTSNPSEFTPNMVNSEISNLPKDKSGIPEFTPADPNLSFESSSSLPFLLRHMPLASIPDIFITPTPVVTISEKEQDILDLIAEQVVTDYNILGNLGIPKIAYRGVKDCQEGLITTTMLQLFSTFDRLNGNDTISKFYNMKQPYVFVKKHHELIKVKHDSQPFIKFLNFRPPNGIKNFKSLLLSSSFKEDCLSFAPTLSQTYINQELGFCELLKLTNEDPPGLMYLKAFDKNKLLLLAAQIVSYCSNNKNSIKNVPPILIILPLDNATLTELVDKANIFQVIKNEVCAKMPNIELYLKVIPMDFIRNVLVTVDQYVNVAISIYNMLPPKSVKFTHIAHTLPEKVNFRTMQQQQMQQQQQQQQQQQNNSTGSSSIIYYDSYIHLAYSRSVDKEWVFAALSDSYGQGSMTKTWYVGNSRGKFDDACNQIWNIALNLASKKFGKICLILTRLNGILPDDELMNWRRLSGRNIHLAVVCVDDNSKISFIDEDKLYPSFKPIYKDTRFGGRMDMTRLYDYEIRDIDQDIHGIVFQHPFPLAHSQHRCAIRSGALIKFKKCDGDTVWDKFAVNLLNCPHSDSTQLLETILEEFRNLAALNVWYGLSDGEDGHIPWHILAVKKMMNTLVHTRVKIANTSAATVHTATSSSIILSDK
For B3, the binding entry in test [2] was “binds”.
